Source: the supplement of paper PMC10849652
The other results are listed elsewhere or left out.

By UniProt entry, the sequences of proteins in these tests, tags left out. Where a name states a change or a piece, a line headed by the entry shows the natural chain unless it says otherwise.
UniProt Q9BUR4: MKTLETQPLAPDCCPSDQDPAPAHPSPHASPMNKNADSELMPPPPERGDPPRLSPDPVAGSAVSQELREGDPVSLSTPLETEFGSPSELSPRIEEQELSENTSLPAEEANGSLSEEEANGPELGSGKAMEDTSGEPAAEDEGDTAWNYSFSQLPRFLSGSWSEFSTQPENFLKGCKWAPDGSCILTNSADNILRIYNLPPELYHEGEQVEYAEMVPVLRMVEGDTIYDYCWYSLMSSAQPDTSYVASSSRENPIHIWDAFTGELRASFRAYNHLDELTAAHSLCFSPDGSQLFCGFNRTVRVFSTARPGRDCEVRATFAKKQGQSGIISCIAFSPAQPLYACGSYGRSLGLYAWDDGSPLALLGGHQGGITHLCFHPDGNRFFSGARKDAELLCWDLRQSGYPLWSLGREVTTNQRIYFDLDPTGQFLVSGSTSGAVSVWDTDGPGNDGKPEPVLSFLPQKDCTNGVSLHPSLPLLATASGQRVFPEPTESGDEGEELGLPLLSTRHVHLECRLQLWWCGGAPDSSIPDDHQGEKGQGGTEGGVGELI
UniProt Q9C0J8: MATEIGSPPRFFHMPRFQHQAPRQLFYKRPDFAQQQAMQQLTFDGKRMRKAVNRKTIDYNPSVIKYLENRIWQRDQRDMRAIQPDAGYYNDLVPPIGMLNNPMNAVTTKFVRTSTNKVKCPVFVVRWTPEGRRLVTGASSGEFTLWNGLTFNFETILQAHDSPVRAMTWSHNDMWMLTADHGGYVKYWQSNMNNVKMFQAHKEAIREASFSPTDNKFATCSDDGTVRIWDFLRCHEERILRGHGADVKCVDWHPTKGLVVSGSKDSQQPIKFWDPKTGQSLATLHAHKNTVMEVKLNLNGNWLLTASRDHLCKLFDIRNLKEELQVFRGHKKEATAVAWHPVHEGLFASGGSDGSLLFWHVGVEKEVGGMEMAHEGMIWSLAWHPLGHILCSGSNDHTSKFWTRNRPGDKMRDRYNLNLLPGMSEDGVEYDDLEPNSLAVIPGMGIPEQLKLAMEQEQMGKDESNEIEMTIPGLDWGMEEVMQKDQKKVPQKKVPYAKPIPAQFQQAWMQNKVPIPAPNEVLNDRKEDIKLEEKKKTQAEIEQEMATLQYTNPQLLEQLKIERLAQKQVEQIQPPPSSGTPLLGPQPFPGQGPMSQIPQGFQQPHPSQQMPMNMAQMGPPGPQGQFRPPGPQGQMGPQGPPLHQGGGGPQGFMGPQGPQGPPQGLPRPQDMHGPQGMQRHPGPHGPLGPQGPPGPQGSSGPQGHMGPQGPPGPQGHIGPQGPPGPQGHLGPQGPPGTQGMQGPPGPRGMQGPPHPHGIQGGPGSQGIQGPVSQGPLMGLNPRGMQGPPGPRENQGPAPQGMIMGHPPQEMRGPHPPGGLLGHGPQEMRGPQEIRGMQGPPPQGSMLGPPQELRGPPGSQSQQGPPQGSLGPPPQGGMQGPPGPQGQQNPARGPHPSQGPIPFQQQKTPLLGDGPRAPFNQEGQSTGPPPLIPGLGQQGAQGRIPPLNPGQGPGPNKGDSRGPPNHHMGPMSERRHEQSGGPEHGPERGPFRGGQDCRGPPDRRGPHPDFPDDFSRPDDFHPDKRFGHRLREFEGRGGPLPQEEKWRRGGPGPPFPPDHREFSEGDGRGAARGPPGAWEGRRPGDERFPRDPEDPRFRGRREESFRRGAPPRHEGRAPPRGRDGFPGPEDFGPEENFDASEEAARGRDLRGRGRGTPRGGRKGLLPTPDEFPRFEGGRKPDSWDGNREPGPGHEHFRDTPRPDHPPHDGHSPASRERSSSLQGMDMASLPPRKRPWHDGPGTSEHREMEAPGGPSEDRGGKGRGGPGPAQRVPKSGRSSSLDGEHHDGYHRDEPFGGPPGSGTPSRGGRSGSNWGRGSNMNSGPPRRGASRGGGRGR
UniProt Q96RL7: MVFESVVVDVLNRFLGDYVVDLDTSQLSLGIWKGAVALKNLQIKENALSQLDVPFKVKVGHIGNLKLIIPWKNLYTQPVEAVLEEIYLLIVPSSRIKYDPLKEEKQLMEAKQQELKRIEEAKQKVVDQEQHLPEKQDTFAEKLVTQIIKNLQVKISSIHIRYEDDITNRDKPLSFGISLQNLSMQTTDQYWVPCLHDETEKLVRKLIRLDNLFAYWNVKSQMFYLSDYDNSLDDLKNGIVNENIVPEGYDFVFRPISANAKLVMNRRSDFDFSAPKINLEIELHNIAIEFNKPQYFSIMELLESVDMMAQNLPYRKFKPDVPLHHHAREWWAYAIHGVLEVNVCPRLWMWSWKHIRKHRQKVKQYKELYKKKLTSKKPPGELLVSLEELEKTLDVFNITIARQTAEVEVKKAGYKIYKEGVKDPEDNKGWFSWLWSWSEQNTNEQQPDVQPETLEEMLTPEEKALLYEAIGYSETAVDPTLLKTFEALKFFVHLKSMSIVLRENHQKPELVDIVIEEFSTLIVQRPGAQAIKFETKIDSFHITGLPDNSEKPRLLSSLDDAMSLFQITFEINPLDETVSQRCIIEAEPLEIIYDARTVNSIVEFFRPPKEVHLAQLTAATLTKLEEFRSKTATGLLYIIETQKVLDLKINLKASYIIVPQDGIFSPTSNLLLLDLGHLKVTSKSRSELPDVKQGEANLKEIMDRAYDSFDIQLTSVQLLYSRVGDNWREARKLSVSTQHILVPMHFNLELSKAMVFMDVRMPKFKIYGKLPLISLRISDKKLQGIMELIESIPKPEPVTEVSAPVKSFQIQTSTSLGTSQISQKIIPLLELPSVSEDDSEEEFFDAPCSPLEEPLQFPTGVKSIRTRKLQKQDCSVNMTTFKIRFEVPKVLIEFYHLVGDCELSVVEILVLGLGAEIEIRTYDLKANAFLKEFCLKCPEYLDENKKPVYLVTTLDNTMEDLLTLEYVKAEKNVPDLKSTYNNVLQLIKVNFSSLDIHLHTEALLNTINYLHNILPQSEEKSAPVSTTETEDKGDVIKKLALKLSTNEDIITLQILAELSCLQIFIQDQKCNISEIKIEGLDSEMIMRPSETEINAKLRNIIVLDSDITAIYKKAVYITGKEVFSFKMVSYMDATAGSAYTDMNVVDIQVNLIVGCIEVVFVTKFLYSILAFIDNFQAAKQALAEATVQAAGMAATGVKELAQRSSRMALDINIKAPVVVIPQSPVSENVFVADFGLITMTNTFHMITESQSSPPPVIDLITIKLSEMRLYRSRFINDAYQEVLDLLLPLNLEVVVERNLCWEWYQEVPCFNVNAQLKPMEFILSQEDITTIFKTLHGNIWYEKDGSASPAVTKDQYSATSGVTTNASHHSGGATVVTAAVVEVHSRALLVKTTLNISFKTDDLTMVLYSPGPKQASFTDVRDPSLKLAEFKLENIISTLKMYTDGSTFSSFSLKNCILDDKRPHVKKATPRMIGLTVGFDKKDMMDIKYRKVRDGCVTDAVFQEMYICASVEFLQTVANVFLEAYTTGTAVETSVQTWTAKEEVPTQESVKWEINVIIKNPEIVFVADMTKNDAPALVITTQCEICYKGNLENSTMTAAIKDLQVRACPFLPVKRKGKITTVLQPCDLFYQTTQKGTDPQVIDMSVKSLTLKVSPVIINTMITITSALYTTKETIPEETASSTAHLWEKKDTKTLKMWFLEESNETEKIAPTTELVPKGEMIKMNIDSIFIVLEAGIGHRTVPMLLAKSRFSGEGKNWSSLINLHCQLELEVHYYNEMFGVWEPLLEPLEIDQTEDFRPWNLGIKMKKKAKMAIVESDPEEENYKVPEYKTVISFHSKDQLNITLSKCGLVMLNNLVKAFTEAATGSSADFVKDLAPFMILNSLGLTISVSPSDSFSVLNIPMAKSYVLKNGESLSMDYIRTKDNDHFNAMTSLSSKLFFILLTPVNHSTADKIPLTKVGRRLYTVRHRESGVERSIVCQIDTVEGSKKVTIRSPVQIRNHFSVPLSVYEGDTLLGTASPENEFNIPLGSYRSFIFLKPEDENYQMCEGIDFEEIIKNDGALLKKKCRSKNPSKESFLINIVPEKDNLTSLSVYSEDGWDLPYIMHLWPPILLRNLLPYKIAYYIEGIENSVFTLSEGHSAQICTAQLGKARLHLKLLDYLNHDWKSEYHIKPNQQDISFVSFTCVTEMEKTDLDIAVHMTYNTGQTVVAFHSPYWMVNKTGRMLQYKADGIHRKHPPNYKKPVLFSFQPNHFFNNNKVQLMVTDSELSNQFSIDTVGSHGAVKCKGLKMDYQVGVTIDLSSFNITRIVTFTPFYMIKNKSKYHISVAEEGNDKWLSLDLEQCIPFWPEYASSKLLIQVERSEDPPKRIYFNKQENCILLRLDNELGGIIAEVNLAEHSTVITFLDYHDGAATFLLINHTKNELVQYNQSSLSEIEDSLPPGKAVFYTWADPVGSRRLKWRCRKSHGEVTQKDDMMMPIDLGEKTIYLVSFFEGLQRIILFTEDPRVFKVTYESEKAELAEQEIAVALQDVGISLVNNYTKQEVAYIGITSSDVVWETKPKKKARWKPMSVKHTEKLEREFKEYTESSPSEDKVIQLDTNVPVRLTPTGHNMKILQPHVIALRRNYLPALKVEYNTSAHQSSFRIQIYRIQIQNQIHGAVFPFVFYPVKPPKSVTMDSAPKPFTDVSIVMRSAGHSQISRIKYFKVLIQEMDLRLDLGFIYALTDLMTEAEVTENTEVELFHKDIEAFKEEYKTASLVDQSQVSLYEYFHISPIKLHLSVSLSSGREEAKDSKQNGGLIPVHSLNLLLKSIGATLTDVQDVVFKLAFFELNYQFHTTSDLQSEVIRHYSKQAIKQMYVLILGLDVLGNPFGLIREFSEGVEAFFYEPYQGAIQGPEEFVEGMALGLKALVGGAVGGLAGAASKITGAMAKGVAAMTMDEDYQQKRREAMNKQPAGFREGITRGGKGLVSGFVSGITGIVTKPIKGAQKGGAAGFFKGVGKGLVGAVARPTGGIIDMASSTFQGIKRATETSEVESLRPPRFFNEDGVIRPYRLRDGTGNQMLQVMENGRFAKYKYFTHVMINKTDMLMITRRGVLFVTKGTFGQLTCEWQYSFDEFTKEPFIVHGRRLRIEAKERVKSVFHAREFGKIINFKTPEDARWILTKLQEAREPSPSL
UniProt Q8TF74: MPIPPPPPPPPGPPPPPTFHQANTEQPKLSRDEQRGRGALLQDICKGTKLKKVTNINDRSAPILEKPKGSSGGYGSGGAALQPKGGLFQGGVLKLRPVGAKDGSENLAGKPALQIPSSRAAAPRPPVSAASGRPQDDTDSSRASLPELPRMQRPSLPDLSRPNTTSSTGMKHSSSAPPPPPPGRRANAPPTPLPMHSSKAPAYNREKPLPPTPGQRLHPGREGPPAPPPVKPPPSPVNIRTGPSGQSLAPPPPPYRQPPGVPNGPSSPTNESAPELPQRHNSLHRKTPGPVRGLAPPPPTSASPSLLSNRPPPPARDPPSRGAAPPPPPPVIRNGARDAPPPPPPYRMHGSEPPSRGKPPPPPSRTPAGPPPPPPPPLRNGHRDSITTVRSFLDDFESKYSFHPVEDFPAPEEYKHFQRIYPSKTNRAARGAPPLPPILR
UniProt O43516: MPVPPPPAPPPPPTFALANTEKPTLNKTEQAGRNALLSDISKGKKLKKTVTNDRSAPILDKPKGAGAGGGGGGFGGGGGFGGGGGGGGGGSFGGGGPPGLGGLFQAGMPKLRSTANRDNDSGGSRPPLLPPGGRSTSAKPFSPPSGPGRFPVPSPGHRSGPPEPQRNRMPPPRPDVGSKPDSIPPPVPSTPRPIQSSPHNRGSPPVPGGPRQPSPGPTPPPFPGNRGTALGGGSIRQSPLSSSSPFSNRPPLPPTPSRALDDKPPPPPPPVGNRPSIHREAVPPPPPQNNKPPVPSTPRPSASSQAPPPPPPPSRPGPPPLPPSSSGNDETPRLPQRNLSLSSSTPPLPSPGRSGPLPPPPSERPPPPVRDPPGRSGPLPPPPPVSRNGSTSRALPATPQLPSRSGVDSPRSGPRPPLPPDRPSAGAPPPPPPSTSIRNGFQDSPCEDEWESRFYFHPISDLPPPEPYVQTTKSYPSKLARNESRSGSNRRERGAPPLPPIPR
UniProt Q9HAD4: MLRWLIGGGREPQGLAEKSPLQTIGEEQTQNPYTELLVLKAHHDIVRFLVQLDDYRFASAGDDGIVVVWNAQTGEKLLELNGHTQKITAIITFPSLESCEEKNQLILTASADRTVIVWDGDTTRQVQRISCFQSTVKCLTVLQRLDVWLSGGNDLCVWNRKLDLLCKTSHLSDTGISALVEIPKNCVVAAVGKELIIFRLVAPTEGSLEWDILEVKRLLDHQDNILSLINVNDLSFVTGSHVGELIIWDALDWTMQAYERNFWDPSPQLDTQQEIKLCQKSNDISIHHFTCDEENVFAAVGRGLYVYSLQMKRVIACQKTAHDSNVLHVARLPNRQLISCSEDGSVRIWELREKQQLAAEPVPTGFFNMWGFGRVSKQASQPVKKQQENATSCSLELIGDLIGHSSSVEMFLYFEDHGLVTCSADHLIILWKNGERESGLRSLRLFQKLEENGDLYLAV

How the values were obtained:
Assay in all cases: log2 fold change, soluble protein after heating vs DMSO (PISA); higher = thermal stabilisation; K562 lysate, 10 uM; active = over 0.2 and 3.5 SD of the protein, either way, in both replicates (recomputed)
vemurafenib = compound: CCCS(=O)(=O)Nc1ccc(F)c(C(=O)c2c[nH]c3ncc(-c4ccc(Cl)cc4)cc23)c1F [vemurafenib]
Outline: (§1)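 The values are log-two fold changes in thermal stability compared with solvent controls and come from duplicates. They were obtained by TMTpro 16plex LC-MS/MS, with channel sums equalised, on the supernatant after 21,000xg for 90 min. That supernatant came from crude K562 extract at 1 mg/mL protein treated with 10 μM compound for 30 min, heated for 3 min across 48°C-58°C, pooled and brought to 0.5% NP-40 at 4°C.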

[1] = compound: CCCS(=O)(=O)Nc1ccc(F)c(C(=O)c2c[nH]c3ncc(Cl)cc23)c1F
Outline: as §1

barasertib = compound: CCN(CCCOc1ccc2c(Nc3cc(CC(=O)Nc4cccc(F)c4)[nH]n3)ncnc2c1)CCOP(=O)(O)O [barasertib]
Outline: as §1

[2] = compound: CC[C@@H]1C(=O)N(C)c2cnc(Nc3ccc(C(=O)NC4CCN(C)CC4)cc3OC)nc2N1C1CCCC1
Outline: as §1

volasertib = compound: CC[C@@H]1C(=O)N(C)c2cnc(Nc3ccc(C(=O)N[C@H]4CC[C@H](N5CCN(CC6CC6)CC5)CC4)cc3OC)nc2N1C(C)C [volasertib]
Outline: as §1

[3] = compound: CCn1c(C(=O)N(C2CC2)C2CC2)cc2c3c(ncn3C)c(Nc3cc(C)n(C)n3)nc21
Outline: as §1

[4] = compound: CCn1cc(-c2ccnc3[nH]c(-c4cccc(CN(C)C)c4)cc23)c(-c2ccc(NC(=O)N(C)C)cc2)n1
Outline: as §1

[5] = compound: CN1CCC(CNc2ccc3ncc(-c4cccc(OC(F)(F)F)c4)n3n2)CC1
Outline: as §1

saracatinib = compound: CN1CCN(CCOc2cc(OC3CCOCC3)c3c(Nc4c(Cl)ccc5c4OCO5)ncnc3c2)CC1 [saracatinib]
Outline: as §1

sotrastaurin = compound: CN1CCN(c2nc(C3=C(c4c[nH]c5ccccc45)C(=O)NC3=O)c3ccccc3n2)CC1 [sotrastaurin]
Outline: as §1

alvocidib = compound: CN1CC[C@H](c2c(O)cc(O)c3c(=O)cc(-c4ccccc4Cl)oc23)[C@H](O)C1 [alvocidib]
Outline: as §1

Tubastatin A = compound: CN1CCc2c(c3ccccc3n2Cc2ccc(C(=O)NO)cc2)C1 [Tubastatin A]
Outline: as §1

[6] = compound: CNC(=O)C1=CC=CC=C1NC2=NC(=NC=C2Cl)NC3=C(C=C(C=C3)N4CCOCC4)OC
Outline: as §1

defactinib = compound: CNC(=O)c1ccc(Nc2ncc(C(F)(F)F)c(NCc3nccnc3N(C)S(C)(=O)=O)n2)cc1 [defactinib]
Outline: as §1

[7] = compound: CNc1nc(-c2ccc3c(N)n[nH]c3c2)cc(N2C[C@@H](C(=O)NC3CCCCC3)CC[C@H]2C)n1
Outline: as §1

encorafenib = compound: COC(=O)N[C@@H](C)CNc1nccc(-c2cn(C(C)C)nc2-c2cc(Cl)cc(NS(C)(=O)=O)c2F)n1 [encorafenib]
Outline: as §1

[8] = compound: COC(=O)[C@H](CCSC)NC(=O)C1=C(C=C(C=C1)NC[C@H](CS)N)C2=CC=CC=C2
Outline: as §1

alisertib = compound: COc1cc(Nc2ncc3c(n2)-c2ccc(Cl)cc2C(c2c(F)cccc2OC)=NC3)ccc1C(=O)O [alisertib]
Outline: as §1

[9] = compound: COc1cc2nc(-c3cc(F)ccc3O)nc(N[C@@H]3CNC[C@H]3C(C)(C)O)c2cc1OC
Outline: as §1

gefitinib = compound: COc1cc2ncnc(Nc3ccc(F)c(Cl)c3)c2cc1OCCCN1CCOCC1 [gefitinib]
Outline: as §1

Measured: log2 fold change

WRAP53 (UniProt Q9BUR4)
inactive: vemurafenib 0.011 | [1] 0.001 | barasertib -0.031 | [2] -0.082 | volasertib 0.005 | [3] -0.086 | [4] -0.038 | [5] 0.099 | saracatinib 0.076 | sotrastaurin -0.039 | alvocidib -0.073 | Tubastatin A -0.022 | [6] -0.016 | defactinib -0.05 | [7] 0.093 | encorafenib -0.045 | [8] 0.002 | alisertib 0.071 | [9] -0.031 | gefitinib -0.006

WDR33 (UniProt Q9C0J8)
inactive: vemurafenib 0.027 | [1] -0.01 | barasertib 0.048 | [2] 0.042 | volasertib 0.021 | [3] 0.018 | [4] -0.016 | [5] -0.016 | saracatinib 0.027 | sotrastaurin 0.02 | alvocidib 0.003 | Tubastatin A -0.072 | [6] -0.017 | defactinib 0.048 | [7] 0.015 | encorafenib -0.012 | [8] 0.084 | alisertib -0.012 | [9] 0.002 | gefitinib 0.001

VPS35 (UniProt Q96QK1)
inactive: vemurafenib -0.005 | [1] -0.003 | barasertib 0.002 | [2] -0.022 | volasertib -0.005 | [3] -0.001 | [4] 0.015 | [5] -0.008 | saracatinib 0.001 | sotrastaurin -0.001 | alvocidib 0.01 | Tubastatin A -0.004 | [6] -0.022 | defactinib -0.022 | [7] 0.009 | encorafenib -0.014 | [8] -0.002 | alisertib -0.005 | [9] 0.006 | gefitinib -0.043

VPS13A (UniProt Q96RL7)
inactive: vemurafenib 0.001 | [1] 0.03 | barasertib 0.084 | [2] 0.119 | volasertib -0.045 | [3] -0.043 | [4] -0.001 | [5] -0.069 | saracatinib 0.041 | sotrastaurin 0.092 | alvocidib -0.041 | Tubastatin A 0.037 | [6] 0.037 | defactinib 0.051 | [7] -0.001 | encorafenib 0.181 | [8] -0.064 | alisertib 0.042 | [9] 0.104 | gefitinib 0.069

WDR36 (UniProt Q8NI36)
inactive: vemurafenib 0.014 | [1] 0.018 | barasertib 0.011 | [2] -0.058 | volasertib -0.022 | [3] 0.034 | [4] 0.012 | [5] -0.076 | saracatinib -0.015 | sotrastaurin 0.044 | alvocidib 0.021 | Tubastatin A -0.102 | [6] 0.028 | defactinib -0.018 | [7] -0.062 | encorafenib -0.025 | [8] 0.134 | alisertib 0.008 | [9] 0.004 | gefitinib -0.03

VKORC1 (UniProt Q9BQB6)
inactive: vemurafenib -0.035 | [1] 0.072 | barasertib 0.139 | [2] 0.009 | volasertib 0.051 | [3] 0.023 | [4] -0.046 | [5] 0.094 | saracatinib -0.059 | sotrastaurin -0.022 | alvocidib 0 | Tubastatin A -0.001 | [6] -0.048 | defactinib 0.023 | [7] 0.108 | encorafenib 0.023 | [8] -0.006 | alisertib 0.034 | [9] -0.016 | gefitinib 0.002

WDR61 (UniProt Q9GZS3)
inactive: vemurafenib -0.008 | [1] -0.001 | barasertib -0.003 | [2] -0.01 | volasertib -0.023 | [3] 0.063 | [4] -0.031 | [5] 0.008 | saracatinib -0.009 | sotrastaurin -0.037 | alvocidib -0.02 | Tubastatin A -0.083 | [6] 0.009 | defactinib -0.03 | [7] -0.026 | encorafenib -0.007 | [8] -0.001 | alisertib 0.004 | [9] 0.002 | gefitinib -0.017

VPS51 (UniProt Q9UID3)
inactive: vemurafenib -0.043 | [1] 0.029 | barasertib 0.038 | [2] -0.015 | volasertib -0.05 | [3] -0.004 | [4] 0.143 | [5] -0.071 | saracatinib 0.02 | sotrastaurin 0.001 | alvocidib 0.052 | Tubastatin A -0.008 | [6] 0.017 | defactinib 0.028 | [7] -0.015 | encorafenib 0.018 | [8] 0.015 | alisertib 0 | [9] -0.001 | gefitinib 0.027

WDR48 (UniProt Q8TAF3)
inactive: vemurafenib 0.006 | [1] 0.02 | barasertib -0.005 | [2] 0.004 | volasertib 0.007 | [3] -0.008 | [4] -0.171 | [5] 0.066 | saracatinib 0.013 | sotrastaurin 0.008 | alvocidib -0.021 | Tubastatin A 0.031 | [6] -0.012 | defactinib -0.031 | [7] -0.015 | encorafenib 0.015 | [8] -0.057 | alisertib -0.013 | [9] -0.008 | gefitinib 0.021

WIPF2 (UniProt Q8TF74)
inactive: vemurafenib 0.009 | [1] 0.034 | barasertib -0.04 | [2] 0.058 | volasertib 0.019 | [3] -0.014 | [4] -0.098 | [5] 0.051 | saracatinib 0.038 | sotrastaurin 0.063 | alvocidib -0.024 | Tubastatin A -0.018 | [6] 0.002 | defactinib -0.02 | [7] -0.08 | encorafenib -0.032 | [8] -0.022 | alisertib 0.076 | [9] 0 | gefitinib 0.068

WIPF1 isoform 3 (UniProt O43516)
inactive: vemurafenib 0.017 | [1] 0.046 | barasertib 0.153 | [2] 0.027 | volasertib 0.058 | [3] -0.051 | [4] -0.218 | [5] -0.002 | saracatinib 0.076 | sotrastaurin 0.028 | alvocidib 0.011 | Tubastatin A 0.009 | [6] -0.039 | defactinib -0.053 | [7] -0.164 | encorafenib 0.007 | [8] -0.03 | alisertib -0.082 | [9] -0.041 | gefitinib 0.003

WDCP (UniProt Q9H6R7)
inactive: vemurafenib -0.004 | [1] 0.033 | barasertib 0.032 | [2] 0.031 | volasertib -0.019 | [3] -0.04 | [4] 0.003 | [5] 0.01 | saracatinib -0.011 | sotrastaurin 0.039 | alvocidib 0.019 | Tubastatin A -0.138 | [6] 0.025 | defactinib 0.005 | [7] 0.032 | encorafenib 0.024 | [8] -0.019 | alisertib 0.01 | [9] 0.062 | gefitinib -0.017

WDR5 (UniProt P61964)
inactive: vemurafenib 0.008 | [1] -0.003 | barasertib 0.046 | [2] 0.012 | volasertib 0.037 | [3] 0.005 | [4] -0.092 | [5] 0.093 | saracatinib 0.037 | sotrastaurin -0.089 | alvocidib -0.098 | Tubastatin A 0.048 | [6] 0.065 | defactinib 0.028 | [7] 0.056 | encorafenib 0.023 | [8] -0.023 | alisertib 0.031 | [9] -0.004 | gefitinib -0.026

WDR73 (UniProt Q6P4I2)
inactive: vemurafenib -0.011 | [1] -0.021 | barasertib -0.024 | [2] 0.033 | volasertib -0.017 | [3] -0.001 | [4] -0.036 | [5] 0.086 | saracatinib 0.013 | sotrastaurin -0.001 | alvocidib -0.018 | Tubastatin A 0.003 | [6] 0.043 | defactinib 0.013 | [7] -0.008 | encorafenib 0.064 | [8] -0.105 | alisertib 0.063 | [9] 0.042 | gefitinib 0.007

WDR41 (UniProt Q9HAD4)
inactive: vemurafenib -0.018 | [1] 0.036 | barasertib -0.07 | [2] 0.089 | volasertib 0.005 | [3] 0.053 | [4] -0.032 | [5] 0.053 | saracatinib 0.017 | sotrastaurin 0.043 | alvocidib -0.061 | Tubastatin A -0.14 | [6] 0.021 | defactinib -0.044 | [7] 0.017 | encorafenib 0.081 | [8] -0.121 | alisertib 0.033 | [9] -0.047 | gefitinib 0.083

VWA5A (UniProt O00534)
inactive: vemurafenib 0.041 | [1] 0.058 | barasertib 0.034 | [2] 0.016 | volasertib -0.013 | [3] 0.009 | [4] -0.201 | [5] 0.085 | saracatinib -0.004 | sotrastaurin -0.002 | alvocidib -0.051 | Tubastatin A -0.022 | [6] 0.015 | defactinib -0.062 | [7] 0.02 | encorafenib -0.015 | [8] -0.032 | alisertib -0.007 | [9] 0.006 | gefitinib -0.028

Two entries drawn at random from those above:
WDR5 (UniProt P61964)
inactive: vemurafenib 0.008 | [1] -0.003 | barasertib 0.046 | [2] 0.012 | volasertib 0.037 | [3] 0.005 | [4] -0.092 | [5] 0.093 | saracatinib 0.037 | sotrastaurin -0.089 | alvocidib -0.098 | Tubastatin A 0.048 | [6] 0.065 | defactinib 0.028 | [7] 0.056 | encorafenib 0.023 | [8] -0.023 | alisertib 0.031 | [9] -0.004 | gefitinib -0.026

WDCP (UniProt Q9H6R7)
inactive: vemurafenib -0.004 | [1] 0.033 | barasertib 0.032 | [2] 0.031 | volasertib -0.019 | [3] -0.04 | [4] 0.003 | [5] 0.01 | saracatinib -0.011 | sotrastaurin 0.039 | alvocidib 0.019 | Tubastatin A -0.138 | [6] 0.025 | defactinib 0.005 | [7] 0.032 | encorafenib 0.024 | [8] -0.019 | alisertib 0.01 | [9] 0.062 | gefitinib -0.017
